From paper PMC4530954
No constants are given. Whether binding was seen depends on the method and setting. In cells and extracts the contact can be indirect. Some results given as binding are weak or reduced against the parent protein; the word gives no strength.

Chains of the proteins cited; added tags and fusions are not shown. Lines headed by an entry give the natural chain unless they say otherwise; changes in a name come on top. A line that says so, or that is headed by a name, gives the form on record, which may keep a tag or linker. Residues count along the entry.
UniProt O55144: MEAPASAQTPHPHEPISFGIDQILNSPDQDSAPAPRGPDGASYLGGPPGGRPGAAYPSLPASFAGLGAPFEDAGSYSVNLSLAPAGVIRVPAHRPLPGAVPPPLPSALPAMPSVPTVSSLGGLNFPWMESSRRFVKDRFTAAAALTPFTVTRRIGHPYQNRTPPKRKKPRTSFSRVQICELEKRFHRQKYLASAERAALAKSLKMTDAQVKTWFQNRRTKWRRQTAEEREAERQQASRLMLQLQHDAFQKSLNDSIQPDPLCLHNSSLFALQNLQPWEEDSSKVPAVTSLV
Tlx3ΔC-Myc, C-terminal deletion mutant of Tlx3 (amino acids 1–226): residues 1-226 of O55144
Tlx3ΔHD-Myc, homeodomain deletion mutant of Tlx3 (lacks amino acids 166–226) (O55144, form named): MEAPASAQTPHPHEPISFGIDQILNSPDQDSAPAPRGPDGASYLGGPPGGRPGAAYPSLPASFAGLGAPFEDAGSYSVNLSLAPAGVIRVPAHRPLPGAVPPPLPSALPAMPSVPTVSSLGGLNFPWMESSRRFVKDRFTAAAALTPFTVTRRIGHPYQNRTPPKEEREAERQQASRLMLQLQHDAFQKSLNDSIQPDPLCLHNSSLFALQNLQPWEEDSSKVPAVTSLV
UniProt P45481: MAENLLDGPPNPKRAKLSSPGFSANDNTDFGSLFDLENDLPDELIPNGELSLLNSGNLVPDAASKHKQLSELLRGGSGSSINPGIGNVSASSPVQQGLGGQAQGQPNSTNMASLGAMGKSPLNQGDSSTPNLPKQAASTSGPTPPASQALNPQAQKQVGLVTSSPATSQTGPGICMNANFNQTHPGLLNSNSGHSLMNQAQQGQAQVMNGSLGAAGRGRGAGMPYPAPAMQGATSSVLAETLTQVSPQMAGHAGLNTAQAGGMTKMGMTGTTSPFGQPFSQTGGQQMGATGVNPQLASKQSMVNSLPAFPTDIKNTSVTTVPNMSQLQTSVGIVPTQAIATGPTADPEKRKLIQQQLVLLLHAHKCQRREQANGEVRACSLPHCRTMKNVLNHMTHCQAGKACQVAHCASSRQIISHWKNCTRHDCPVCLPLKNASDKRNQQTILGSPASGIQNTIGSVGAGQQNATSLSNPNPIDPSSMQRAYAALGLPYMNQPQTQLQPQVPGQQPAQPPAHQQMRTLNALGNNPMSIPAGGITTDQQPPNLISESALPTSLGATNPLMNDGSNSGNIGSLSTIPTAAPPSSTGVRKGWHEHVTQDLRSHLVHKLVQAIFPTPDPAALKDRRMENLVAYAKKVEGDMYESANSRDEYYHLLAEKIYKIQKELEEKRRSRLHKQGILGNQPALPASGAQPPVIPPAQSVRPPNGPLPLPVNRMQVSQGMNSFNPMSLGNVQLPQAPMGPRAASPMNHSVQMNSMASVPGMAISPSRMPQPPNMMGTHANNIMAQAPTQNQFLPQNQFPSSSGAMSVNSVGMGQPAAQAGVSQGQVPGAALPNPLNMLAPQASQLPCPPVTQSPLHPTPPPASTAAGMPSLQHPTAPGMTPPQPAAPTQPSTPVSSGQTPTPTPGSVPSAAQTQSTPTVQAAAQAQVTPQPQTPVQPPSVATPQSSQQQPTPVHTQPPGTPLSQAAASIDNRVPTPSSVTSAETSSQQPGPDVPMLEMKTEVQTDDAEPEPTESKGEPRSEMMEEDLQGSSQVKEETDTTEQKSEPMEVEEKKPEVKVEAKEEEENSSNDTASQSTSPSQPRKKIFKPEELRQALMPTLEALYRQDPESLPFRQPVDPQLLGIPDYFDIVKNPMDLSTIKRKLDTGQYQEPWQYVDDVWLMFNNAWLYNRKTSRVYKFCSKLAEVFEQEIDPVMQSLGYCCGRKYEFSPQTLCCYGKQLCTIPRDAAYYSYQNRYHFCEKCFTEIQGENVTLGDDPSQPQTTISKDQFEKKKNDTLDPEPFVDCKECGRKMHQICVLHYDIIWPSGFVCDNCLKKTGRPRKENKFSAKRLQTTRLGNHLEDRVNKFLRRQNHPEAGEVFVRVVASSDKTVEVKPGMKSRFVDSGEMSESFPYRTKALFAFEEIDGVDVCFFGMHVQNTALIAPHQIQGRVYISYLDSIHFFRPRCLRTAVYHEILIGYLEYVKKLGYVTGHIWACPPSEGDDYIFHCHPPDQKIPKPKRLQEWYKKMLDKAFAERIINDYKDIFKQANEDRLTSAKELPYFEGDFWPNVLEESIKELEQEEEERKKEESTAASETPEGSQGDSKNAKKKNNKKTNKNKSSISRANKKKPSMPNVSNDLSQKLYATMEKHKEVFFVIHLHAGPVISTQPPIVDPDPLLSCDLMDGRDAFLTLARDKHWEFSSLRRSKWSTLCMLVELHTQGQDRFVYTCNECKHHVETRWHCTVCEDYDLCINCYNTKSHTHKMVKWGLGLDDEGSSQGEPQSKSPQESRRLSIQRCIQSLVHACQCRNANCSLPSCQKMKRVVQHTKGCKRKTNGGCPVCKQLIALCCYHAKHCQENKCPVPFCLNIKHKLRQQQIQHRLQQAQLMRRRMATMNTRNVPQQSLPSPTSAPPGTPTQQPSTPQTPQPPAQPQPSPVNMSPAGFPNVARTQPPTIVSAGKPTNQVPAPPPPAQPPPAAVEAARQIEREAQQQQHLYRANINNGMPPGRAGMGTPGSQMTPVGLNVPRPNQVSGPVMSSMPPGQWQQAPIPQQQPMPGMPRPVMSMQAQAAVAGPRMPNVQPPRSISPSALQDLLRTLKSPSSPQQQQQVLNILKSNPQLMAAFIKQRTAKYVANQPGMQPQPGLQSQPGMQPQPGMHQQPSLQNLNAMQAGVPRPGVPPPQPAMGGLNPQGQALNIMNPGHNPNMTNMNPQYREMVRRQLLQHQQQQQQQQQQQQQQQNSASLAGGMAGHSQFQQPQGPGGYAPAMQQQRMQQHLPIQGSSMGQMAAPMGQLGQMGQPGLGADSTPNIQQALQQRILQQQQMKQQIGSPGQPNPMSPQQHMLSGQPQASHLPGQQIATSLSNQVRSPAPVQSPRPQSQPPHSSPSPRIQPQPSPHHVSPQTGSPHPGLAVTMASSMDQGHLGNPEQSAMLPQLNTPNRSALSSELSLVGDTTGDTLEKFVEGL

Tests used:
[1] = biological target: Tlx3-W127G-Myc, point mutant in the Pbx interaction motif of Tlx3 (mouse) (UniProt O55144); experiment: co-IP; HEK293 triply transfected with Pbx3 (3xFLAG), a Tlx3-Myc construct and CBP; whole-cell lysate; IP anti-Myc and blot anti-CBP, or IP anti-CBP and blot anti-Myc; 75 mM NaCl, 6% glycerol, 1% NP-40, 4°C overnight
[2] = biological target: Tlx3ΔC-Myc, C-terminal deletion mutant of Tlx3 (amino acids 1–226) (mouse) (UniProt O55144); experiment: as above
[3] = biological target: Tlx3ΔHD-Myc, homeodomain deletion mutant of Tlx3 (lacks amino acids 166–226) (mouse) (UniProt O55144); experiment: as above
[4] = biological target: Tlx3-W127G-Myc, point mutant in the Pbx interaction motif of Tlx3 (mouse) (UniProt O55144); experiment: co-IP; HEK293 cotransfected with a Tlx3-Myc construct and CBP, no Pbx3; whole-cell lysate 40 h after transfection; IP anti-Myc and blot anti-CBP, or IP anti-CBP and blot anti-Myc; 75 mM NaCl, 6% glycerol, 1% NP-40, 4°C overnight

- binding [1]: binds
- binding [2]: binds
- binding [3]: no binding
- binding [4]: binds weakly
Substance: CREB-binding protein (CBP), full length, from pRc/RSV-CBP (from UniProt P45481 1-2441)
